pIC50: −log10 of the molar value.
Biological target: T1, AmTYR1 (Apis mellifera, UniProt Q9NG02)
T1 construct: gene TyrR
Settings: read-out: RECEPTOR / AmTYR1; antagonist; against 1 µM agonist (not named); 100 nM forskolin; 3 h treatment

By UniProt entry, the sequences of proteins in these tests, tags left out. Residues count along the entry.
UniProt Q9NG02, 1-399: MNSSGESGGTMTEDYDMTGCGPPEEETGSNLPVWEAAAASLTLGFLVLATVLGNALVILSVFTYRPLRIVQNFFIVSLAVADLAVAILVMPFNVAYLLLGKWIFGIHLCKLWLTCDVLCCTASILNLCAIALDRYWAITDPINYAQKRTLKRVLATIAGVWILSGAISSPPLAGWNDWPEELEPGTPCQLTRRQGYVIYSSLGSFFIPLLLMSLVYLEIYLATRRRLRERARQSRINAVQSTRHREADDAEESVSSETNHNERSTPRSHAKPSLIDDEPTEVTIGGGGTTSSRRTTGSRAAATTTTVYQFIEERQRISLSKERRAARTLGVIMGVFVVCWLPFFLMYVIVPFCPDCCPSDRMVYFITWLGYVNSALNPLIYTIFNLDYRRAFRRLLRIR

CN1CCN2c3ccccc3Cc3ccccc3C2C1 (stereo not shown) [mianserin]
pIC50: 4.14
